# Percent effect of library compounds

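Phenotypic screen: M. tuberculosis growth, glucose 7H9 medium, 3 days; the read-out is not stated. Compounds at 50 µM. The record gives no direction; compounds that gave an IC50 in retests scored well above the rest, so higher reads as more growth inhibition. Size under these conditions: about 69,000 compounds, about 760 of them at 50% or above in at least one test.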

The filed quantity is “Percent Effect” (%). How 0% and 100% were set is not recorded. Most values in the screen are low, and negative values occur. The compounds are a random part of those screened. Two or more numbers in one place are separate tests of the same structure; such repeats can differ widely.

Compound	effect
O=C(CN1CCCS(=O)(=O)CC1)NCc1ccccc1F	-32.59 and -2.861
CNS(=O)(=O)c1ccc(CN(C)Cc2nc3ccc(F)cc3[nH]2)cc1	-0.4927
COc1ccc(NC(=O)c2nc(C)sc2C(C)C)cn1	19.44 and 17.9
CNC(=O)c1ccc(NC(=O)NC(C)c2cc(C)oc2C)c(C)c1 (configuration not stated)	-15.61
CN(C)C(=O)CN1CCN(c2ccnc3c(F)ccc(F)c23)CC1	-12.63 and -2.201
Cc1ccccc1-c1noc(-c2ccc(N(C)C3CCOCC3)nc2)n1	12.86
O=C(COc1cccc(F)c1)N1C[C@H](CO)C[C@H](CN2CCCC2)C1	-8.837
CN(Cc1ccon1)C1CCN(c2cccc(-c3cscn3)c2)CC1	26.09
Cc1nc2c(c(N3CCC4(CCCNC4=O)C3)n1)CCC2 (configuration not stated)	6.39
COCCC1(CO)CCCN(Cc2ccc(C(F)(F)F)cc2)C1 (configuration not stated)	7.61 and -3
O=C(O)C(F)(F)F.[H][C@@]12CCN(S(C)(=O)=O)[C@@]1([H])CCN2Cc1cc(C)c(C)o1	-9.456
COCCn1cnc2ccc(NC(=O)c3ccccn3)cc2c1=O	27.03
Cc1occc1C(=O)NCC1OCCc2cn(C)nc21.O=C(O)C(F)(F)F (configuration not stated)	4.461
Cc1nc2oc(C(=O)N3CCOCC3)c(N)c2c2c1CCCC2	10.63
Cc1nsc(NC(=O)NC2CCCOC2)n1 (configuration not stated)	-19.32 and -10.98
CC(NC(=O)NCCNc1cnccn1)c1cccs1 (configuration not stated)	9.217
CCCc1nnsc1C(=O)NCC(O)c1ccc(SC)cc1 (configuration not stated)	1.713 and 3.381
[H][C@]12CC[C@]([H])(CN(Cc3ccccn3)C1)N(Cc1cc(C(C)(C)C)[nH]n1)C2	27.5
COCCOc1ccccc1C(=O)N(C)Cc1ncc(C)c(OC)c1C	17.93
Cc1cc(C)c2c(c1)C(NCc1c(C)nn(C)c1N(C)C)CCO2 (configuration not stated)	13.77
CC(C)c1noc(-c2ccc(NC(=O)NCC(O)C(C)C)cc2)n1 (configuration not stated)	-11.83
Cc1sc(C(=O)O)cc1S(=O)(=O)Nc1c(F)cccc1-n1cccn1	5.752
CCC(C)Sc1ncc(-c2c(C#N)c(N)nc3c2COCC3)cn1 (configuration not stated)	-40.06
CN(CCCc1ccccc1)C(=O)c1cn2c(n1)CNCC2	14.87
CCN1C(=O)C(C)(C)c2cc(NC(=O)c3ccco3)ccc21	17.58
COc1nn(C)cc1C(=O)N1CCC(c2ccccc2)C1 (configuration not stated)	-25.99
NC(=O)CCNCc1c(Cl)cccc1N1CCCC1	-6.38 and 4.836
Cc1ccc(C(=O)N2CCC3(CC2)CC(N2CCCC2)C3)cc1.O=C(O)C(F)(F)F	-3.059
CCS(=O)(=O)CCSc1cccc(C#N)c1	3.829 and -4.602
COCC(=O)N1CCCC1c1ccc(C(=O)NCc2ccccc2Cl)s1 (configuration not stated)	26.1 and -3.499
CCN(CC)C(=O)[C@@H]1C[C@H](n2cc(-c3cccc(OC)c3)nn2)CN1	2.605
COc1ccc(-c2nc(C#N)c(N(C)C)o2)cc1S(=O)(=O)N1CCCC1	-23.45 and -0.4036
CCN(Cc1nccn1C)C(=O)c1ccc(NCc2cnn(C)c2)nc1	10.93 and 23.8
COCCC(=O)N1CCC2(CCN(Cc3ccc(OC)c(F)c3)C2)C1 (configuration not stated)	20.85
COc1cccc(C(=O)NS(=O)(=O)c2cccc(C#N)c2)c1OC	-12.34
CN(C)C(CNCc1nc(-c2ccsc2)no1)c1cccc(F)c1 (configuration not stated)	29.28
CCN1CC2(CCN(CC3COCCO3)CC2)OC1=O (configuration not stated)	-46.86 and -4.844
CC(=O)N(C)Cc1cccc(NC(=O)N(C)Cc2nccs2)c1	-26.92
COCCC(=O)N1CCCC([C@@H]2C[C@H](C(F)F)n3ncnc3N2)C1 (some centres not stated)	-13.5
Cc1cc(C(=O)NCc2cccnc2N(C)C)c(C)o1	8.185
COCCN(CCC#N)S(=O)(=O)c1cc(F)ccc1F	3.035
CCNC(=O)N1CCCCC1CCNS(C)(=O)=O (configuration not stated)	5.397
COCCNC(=O)C1CC(=O)N(c2n[nH]c3cccc(F)c23)C1 (configuration not stated)	13.28
CCc1nc2n(n1)CC(NCC(=O)Nc1ccc(Cl)cn1)CC2 (configuration not stated)	-2.825
Oc1cc(CN2CCCCC2c2cccnc2)nc2c(F)cccc12 (configuration not stated)	1.227 and -16.68
CC(=O)c1ccc(C(=O)N(C)Cc2nc(-c3ccccn3)no2)s1	-4.078 and -5.382
O=C(C[S+]([O-])Cc1ccc(F)cc1)N1CCc2sccc2C1 (configuration not stated)	31.69
Cc1ncsc1C(=O)OCCN1CCCCCC1=O	0.53
CNC(=O)C1CN(C)CCN(CCCOc2ccccc2F)C1 (configuration not stated)	-15.61
Cc1noc(C)c1C(=O)N1CCCC1(C)C(=O)NC1CCCC1 (configuration not stated)	11.43
O=C(O)C(F)(F)F.O=C1COC2(CCN(Cc3ccoc3)CC2)CN1c1ccccc1	11.81
O=C(Cn1cnc2cc3c(cc21)OCCCO3)NCCc1ccccc1	3.559
COCc1nc2c(o1)CN(C(=O)NCc1ccccc1)C2	32.13 and 3.915
O=C(C(NCc1cccc(F)c1F)c1ccccc1)N1CCOCC1 (configuration not stated)	2.792 and -42.06
CN(Cc1ccco1)C(=O)NC(Cn1ccnc1)C(C)(C)C (configuration not stated)	6.366
Cn1cc(CN2CCc3ccc(=O)n(CC4CC4)c3CC2)cn1	-0.9505
NC(=O)[C@H]1CCCN(c2nccc(-c3ccncc3)n2)C1	5.196
Clc1ccc(CN2CCC3(CC2)CC(c2cccnc2)=NO3)cc1	11.48
O=C(CCN1CCCCO1)N1CCC(CO)(CCc2ccccc2)CC1	8.874 and 12.48
COc1ccc2c(c1)CCCN2C(=O)CN1CCOC(CN(C)C)C1 (configuration not stated)	-22.91
CCCN1CCc2[nH]cnc2C12CCN(C(=O)Cn1ccnc1C)CC2	-25.82 and -2.148
O=C(NCC1CCOC1)c1ccc(-c2ccccc2)[nH]c1=O (configuration not stated)	-20.82 and 0.4632
COc1ccc(C(=O)Nc2ccccc2C(C)C)c(OC)n1	-10.77
[H][C@]12CCC[C@@]1(COCC1CCOCC1)CN(C(=O)c1ccncn1)C2	10.84
Cc1nc(C)n(CC2CN(CCOc3ccccc3C#N)CCO2)n1 (configuration not stated)	15.09
CCOCc1ccc(NC(=O)N2CCOC3(CCC3)C2)cc1	-5.773
CCc1ccc(NC(=O)C(C)N2CCN(Cc3ncc[nH]3)CC2)cc1 (configuration not stated)	-11.28
[H][C@@]12CS(=O)(=O)C[C@]1([H])N(C(=O)c1ncoc1C)CCN2Cc1ccccc1	-15.74
COc1ccccc1[C@@H]1CN(Cc2c(C)noc2C)C[C@H]1C(=O)O	29.53
NCC1CN(C(=O)c2cccc(-n3cccn3)c2)CCO1 (configuration not stated)	1.044
c1cc(-c2cn[nH]c2)ccc1CN1CCNCC1	14.85
Cn1nc(Cn2cccn2)c2c1CN(C1CCOC1)C2.O=C(O)C(F)(F)F (configuration not stated)	-5.423
Cn1cnnc1C1CCCN(C(=O)COc2ccccc2Cl)C1 (configuration not stated)	3.829
COCc1cccc(C(=O)N2CCCC2)c1	22.22 and 35.68
O=C(O)C(F)(F)F.c1cc(CN2CCCn3cnc(COCC4CC4)c3C2)co1	-56.18
CN1CC[C@H](c2nnc(-c3cncn3C)o2)C1	-8.707 and -5.644
Cn1nccc1CN1CCOC(c2ccc(-c3cncnc3)cn2)C1 (configuration not stated)	10.34
COCCCN1C(=O)CC(N2CCN(c3ccc(F)cc3)CC2)C1=O (configuration not stated)	-44.12
CNC(=O)c1nc(CN2CCOC(CCCC(C)C)C2)no1 (configuration not stated)	5.049
Cc1csc(C2(NCC(O)COc3ccc(F)cc3)CCC2)n1 (configuration not stated)	-16.38
CN1CCC(c2cccc(Cc3ccc(C(F)(F)F)cc3)n2)CC1	51.26
O=C1N(Cc2ccc(F)c(F)c2)CCCC1(O)CNCc1ccccn1 (configuration not stated)	-4.839
Cc1ccc(-c2ccnc(N[C@H]3COC[C@@H]3N3CCCC3)n2)c(C)n1	23.15 and 13.65
Cc1cnn(CC2CCCN2C(=O)c2ccc3nnc(C)n3c2)c1 (configuration not stated)	-18.97
Cc1nc2c(c(NCc3nc4ccccc4s3)n1)CCNCC2	69.41
COc1cc(CCC(=O)NC2CC2)ccc1OCC(F)(F)F	6.458
COc1ccc(CNc2ncc(-c3cc(C)no3)c(C(C)C)n2)cc1	18.9
CC(C)C(=O)N1CCCC2(CCCN2CC2CCCC2)C1.O=C(O)C(F)(F)F (configuration not stated)	-21.99 and -3.393
CC(C)(O)CN1CCN(C(=O)c2ccc(Cl)c3cccnc23)CC1	-7.903
CN(C)CCNC(=O)c1ccc2c(-c3nccs3)noc2c1	-0.3887 and -5.065
O=C(Nc1cc(C(F)(F)F)c[nH]c1=O)N1CCOCC1	4.332
COCCCN(Cc1ccccn1)S(=O)(=O)Cc1ccccc1	5.652 and -3.525

The last 7 entries again:

* COc1cc(CCC(=O)NC2CC2)ccc1OCC(F)(F)F : 6.458%
* COc1ccc(CNc2ncc(-c3cc(C)no3)c(C(C)C)n2)cc1 : 18.9%
* CC(C)C(=O)N1CCCC2(CCCN2CC2CCCC2)C1.O=C(O)C(F)(F)F (configuration not stated) : -21.99% and -3.393%
* CC(C)(O)CN1CCN(C(=O)c2ccc(Cl)c3cccnc23)CC1 : -7.903%
* CN(C)CCNC(=O)c1ccc2c(-c3nccs3)noc2c1 : -0.3887% and -5.065%
* O=C(Nc1cc(C(F)(F)F)c[nH]c1=O)N1CCOCC1 : 4.332%
* COCCCN(Cc1ccccn1)S(=O)(=O)Cc1ccccc1 : 5.652% and -3.525%

From ChEMBL document CHEMBL3988442, “University of Dundee, Small-Polar-MMV Screening Library” (2021).